Measured values as given in article PMC8683613.
No constants are given. Whether binding was seen depends on the method and setting.

Molecular target: pyruvate formate-lyase activating enzyme (PFL-AE) (E. coli) (UniProt P0A9N4)
Assay: SEC; clarified lysate loaded on HiLoad 16/60 Superdex 75 prep grade, anaerobic; 50 mM Tris pH 7.5, 100 mM NaCl, 1 mM DTT

B1: pyruvate formate-lyase activating enzyme (PFL-AE) (enzyme, UniProt P0A9N4 2-246)
chain: SVIGRIHSFESCGTVDGPGIRFITFFQGCLMRCLYCHNRDTWDTHGGKEVTVEDLMKEVVTYRHFMNASGGGVTASGGEAILQAEFVRDWFRACKKEGIHTCLDTNGFVRRYDPVIDELLEVTDLVMLDLKQMNDEIHQNLVGVSNHRTLEFAKYLANKNVKVWIRYVVVPGWSDDDDSAHRLGEFTRDMGNVEKIELLPYHELGKHKWVAMGEEYKLDGVKPPKKETMERVKGILEQYGHKVMF
For B1, the binding was “no binding”.
